PubChem BioAssay AID1259254 – NCATS – 2017
Screen: 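Genome-wide screen for genes that prevent DNA re-replication in cancer cells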 (primary screen). System: human HCT116 colorectal cancer cells. Reagent: single siRNA against human genes. Duration: 3 days. Read-out: 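Imaged Hoechst DNA stain sorts each cell into a cycle phase by DNA amount; per plate, G2 fraction set to 0% for non-targeting and 100% for GMNN siRNA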. Scale: G2 robust z-score and G2 cells, % of GMNN control: higher = more G2 cells, more excess DNA replication. Hit rule: 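An siRNA counts as active if its G2 robust z-score lies at least 5 MADs above the screen median; here such calls match roughly 38% of GMNN control or more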.
Shown is an unselected part of about 59,000 reagents. Of all reagents, about 1,550 (2.6%) were called active. 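G2 share is only a proxy for re-replication; each gene was hit by three separate siRNAs, and active genes were retested.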 A number with no mark means an inactive call. Reagents against one gene are numbered here. Further read-outs or replicates are left out here. Not stated in the record: the amount of reagent.

gene symbol	siRNA no.	G2 robust z-score	G2 cells, % of GMNN control
CIAPIN1	1	-0.668	-1.73
CIAPIN1	2	-0.599	-1.25
CIAPIN1	3	2.08	17.6
KCNB2	1	0.909	9.37
KCNB2	2	3.85	30
KCNB2	3	-0.77	-2.45
SH3GLB2	1	-1.17	-5.25
SH3GLB2	2	-1.14	-5.02
SH3GLB2	3	1.42	13
SOX18	1	0.231	4.59
SOX18	2	0.185	4.27
SOX18	3	0.695	7.85
MESD	1	5.52 (active)	41.8
MESD	2	0.416	5.89
MESD	3	3.03	24.3
TRIAP1	1	0.508	6.54
TRIAP1	2	-0.955	-3.75
TRIAP1	3	-1.08	-4.66
SLC25A45	1	2.94	23.6
SLC25A45	2	0.628	7.39
SLC25A45	3	-0.207	1.51
CEP44	1	1.26	11.8
CEP44	2	2.33	19.4
CEP44	3	-0.0609	2.54
PRDM11	1	0.601	7.2
PRDM11	2	2.31	19.2
PRDM11	3	0.507	6.53
NCAPG	1	1.49	13.5
NCAPG	2	-0.634	-1.49
NCAPG	3	-0.00891	2.9
TFAP2E	1	-0.442	-0.142
TFAP2E	2	0.469	6.27
TFAP2E	3	0.622	7.35
ZNF586	1	-0.291	0.922
ZNF586	2	-1.14	-5.05
ZNF586	3	-0.34	0.577
LARGE1	1	1.67	14.7
LARGE1	2	0.101	3.68
LARGE1	3	0.136	3.92
PMAIP1	1	-0.39	0.226
PMAIP1	2	2.99	24
PMAIP1	3	1.4	12.8
CYP4A11	1	-0.402	0.137
CYP4A11	2	-0.287	0.95
CYP4A11	3	0.587	7.1
SAMD15	1	5	38.1
SAMD15	2	-0.862	-3.1
SAMD15	3	2.48	20.4

Hits, among the entries above:
gene symbol	siRNA no.	G2 robust z-score	G2 cells, % of GMNN control
MESD	1	5.52 (active)	41.8
